# Results from PMC10312976.
# No constants are given. Whether binding was seen depends on the method and setting. In cells and extracts the contact can be indirect. Some binding calls cover weakened binding; strength is not graded here.
# T1: Dbr1 (reciprocal co-IP in 293T cells) (human), Q9UK59
# T1 chain: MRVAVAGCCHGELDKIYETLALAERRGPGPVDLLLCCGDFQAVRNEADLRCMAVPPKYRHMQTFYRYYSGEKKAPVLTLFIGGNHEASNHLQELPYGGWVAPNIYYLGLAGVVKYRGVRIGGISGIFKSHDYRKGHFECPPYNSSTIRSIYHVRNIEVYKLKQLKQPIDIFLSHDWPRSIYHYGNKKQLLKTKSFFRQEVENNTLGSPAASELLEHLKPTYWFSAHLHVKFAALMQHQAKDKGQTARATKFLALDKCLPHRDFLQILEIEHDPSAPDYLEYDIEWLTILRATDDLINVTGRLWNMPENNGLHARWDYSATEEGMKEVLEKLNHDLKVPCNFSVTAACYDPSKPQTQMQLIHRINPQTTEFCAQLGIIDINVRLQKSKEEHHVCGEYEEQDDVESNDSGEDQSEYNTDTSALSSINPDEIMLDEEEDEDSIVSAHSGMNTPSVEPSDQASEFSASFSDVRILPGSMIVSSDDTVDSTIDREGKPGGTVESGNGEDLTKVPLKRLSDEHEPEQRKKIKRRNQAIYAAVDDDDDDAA
# T2: AQR (human (endogenous in HEK293T)), O60306
# T2 chain: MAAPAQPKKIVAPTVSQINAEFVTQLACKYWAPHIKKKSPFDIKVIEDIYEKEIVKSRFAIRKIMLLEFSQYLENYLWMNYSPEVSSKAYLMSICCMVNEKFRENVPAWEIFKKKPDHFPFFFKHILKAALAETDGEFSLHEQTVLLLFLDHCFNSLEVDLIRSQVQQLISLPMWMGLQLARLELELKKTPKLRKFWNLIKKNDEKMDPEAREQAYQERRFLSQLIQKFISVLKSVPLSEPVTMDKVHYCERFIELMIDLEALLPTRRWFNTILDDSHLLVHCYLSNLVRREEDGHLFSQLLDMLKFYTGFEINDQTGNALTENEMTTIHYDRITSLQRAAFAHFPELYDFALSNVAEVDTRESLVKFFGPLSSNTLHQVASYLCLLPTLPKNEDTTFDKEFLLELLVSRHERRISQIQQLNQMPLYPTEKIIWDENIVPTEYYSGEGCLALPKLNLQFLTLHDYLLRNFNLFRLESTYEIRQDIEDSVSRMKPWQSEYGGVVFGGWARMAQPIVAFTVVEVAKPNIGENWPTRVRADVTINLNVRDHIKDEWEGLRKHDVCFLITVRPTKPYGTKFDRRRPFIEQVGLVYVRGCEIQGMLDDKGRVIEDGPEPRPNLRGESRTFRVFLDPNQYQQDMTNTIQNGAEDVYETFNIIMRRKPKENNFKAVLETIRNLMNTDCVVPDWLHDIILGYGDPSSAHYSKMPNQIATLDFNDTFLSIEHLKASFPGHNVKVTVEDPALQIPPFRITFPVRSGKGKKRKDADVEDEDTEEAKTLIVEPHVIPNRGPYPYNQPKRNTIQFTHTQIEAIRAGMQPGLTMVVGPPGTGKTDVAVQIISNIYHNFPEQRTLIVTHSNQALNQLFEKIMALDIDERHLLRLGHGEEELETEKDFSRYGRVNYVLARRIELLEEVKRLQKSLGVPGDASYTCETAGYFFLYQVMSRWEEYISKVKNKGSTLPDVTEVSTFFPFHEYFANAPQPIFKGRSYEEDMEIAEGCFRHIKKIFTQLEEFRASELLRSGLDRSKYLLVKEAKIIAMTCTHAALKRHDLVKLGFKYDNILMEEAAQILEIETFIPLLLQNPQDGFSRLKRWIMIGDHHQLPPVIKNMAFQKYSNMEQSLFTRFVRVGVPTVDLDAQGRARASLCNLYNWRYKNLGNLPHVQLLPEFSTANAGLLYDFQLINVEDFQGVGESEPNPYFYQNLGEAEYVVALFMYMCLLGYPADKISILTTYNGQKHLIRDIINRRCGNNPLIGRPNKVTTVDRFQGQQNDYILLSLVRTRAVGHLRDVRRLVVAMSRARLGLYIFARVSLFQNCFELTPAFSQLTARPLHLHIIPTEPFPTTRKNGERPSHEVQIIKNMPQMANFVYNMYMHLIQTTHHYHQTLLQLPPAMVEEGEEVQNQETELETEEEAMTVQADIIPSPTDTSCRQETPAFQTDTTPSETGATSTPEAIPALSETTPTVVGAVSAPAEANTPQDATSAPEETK
# Columns and labels:
# [1] = target: T1, Dbr1 (reciprocal co-IP in 293T cells) …; experiment: co-IP; reciprocal co-IP of Dbr1 and AQR in 293T cells, western blot of both Dbr1 and AQR immunoprecipitations; conditions: remark: other sources report otherwise
# [2] = target: T2, AQR (human (endogenous in HEK293T)), …; experiment: as above; conditions: remark: other sources report otherwise
binding [1],binding [2],Binder
binds,,"AQR, O60306 1-1485 (protein) MAAPAQPKKIVAPTVSQINAEFVTQLACKYWAPHIKKKSPFDIKVIEDIYEKEIVKSRFAIRKIMLLEFSQYLENYLWMNYSPEVSSKAYLMSICCMVNEKFRENVPAWEIFKKKPDHFPFFFKHILKAALAETDGEFSLHEQTVLLLFLDHCFNSLEVDLIRSQVQQLISLPMWMGLQLARLELELKKTPKLRKFWNLIKKNDEKMDPEAREQAYQERRFLSQLIQKFISVLKSVPLSEPVTMDKVHYCERFIELMIDLEALLPTRRWFNTILDDSHLLVHCYLSNLVRREEDGHLFSQLLDMLKFYTGFEINDQTGNALTENEMTTIHYDRITSLQRAAFAHFPELYDFALSNVAEVDTRESLVKFFGPLSSNTLHQVASYLCLLPTLPKNEDTTFDKEFLLELLVSRHERRISQIQQLNQMPLYPTEKIIWDENIVPTEYYSGEGCLALPKLNLQFLTLHDYLLRNFNLFRLESTYEIRQDIEDSVSRMKPWQSEYGGVVFGGWARMAQPIVAFTVVEVAKPNIGENWPTRVRADVTINLNVRDHIKDEWEGLRKHDVCFLITVRPTKPYGTKFDRRRPFIEQVGLVYVRGCEIQGMLDDKGRVIEDGPEPRPNLRGESRTFRVFLDPNQYQQDMTNTIQNGAEDVYETFNIIMRRKPKENNFKAVLETIRNLMNTDCVVPDWLHDIILGYGDPSSAHYSKMPNQIATLDFNDTFLSIEHLKASFPGHNVKVTVEDPALQIPPFRITFPVRSGKGKKRKDADVEDEDTEEAKTLIVEPHVIPNRGPYPYNQPKRNTIQFTHTQIEAIRAGMQPGLTMVVGPPGTGKTDVAVQIISNIYHNFPEQRTLIVTHSNQALNQLFEKIMALDIDERHLLRLGHGEEELETEKDFSRYGRVNYVLARRIELLEEVKRLQKSLGVPGDASYTCETAGYFFLYQVMSRWEEYISKVKNKGSTLPDVTEVSTFFPFHEYFANAPQPIFKGRSYEEDMEIAEGCFRHIKKIFTQLEEFRASELLRSGLDRSKYLLVKEAKIIAMTCTHAALKRHDLVKLGFKYDNILMEEAAQILEIETFIPLLLQNPQDGFSRLKRWIMIGDHHQLPPVIKNMAFQKYSNMEQSLFTRFVRVGVPTVDLDAQGRARASLCNLYNWRYKNLGNLPHVQLLPEFSTANAGLLYDFQLINVEDFQGVGESEPNPYFYQNLGEAEYVVALFMYMCLLGYPADKISILTTYNGQKHLIRDIINRRCGNNPLIGRPNKVTTVDRFQGQQNDYILLSLVRTRAVGHLRDVRRLVVAMSRARLGLYIFARVSLFQNCFELTPAFSQLTARPLHLHIIPTEPFPTTRKNGERPSHEVQIIKNMPQMANFVYNMYMHLIQTTHHYHQTLLQLPPAMVEEGEEVQNQETELETEEEAMTVQADIIPSPTDTSCRQETPAFQTDTTPSETGATSTPEAIPALSETTPTVVGAVSAPAEANTPQDATSAPEETK"
,binds,"Dbr1 (reciprocal co-IP in 293T cells), Q9UK59 1-544 (enzyme) MRVAVAGCCHGELDKIYETLALAERRGPGPVDLLLCCGDFQAVRNEADLRCMAVPPKYRHMQTFYRYYSGEKKAPVLTLFIGGNHEASNHLQELPYGGWVAPNIYYLGLAGVVKYRGVRIGGISGIFKSHDYRKGHFECPPYNSSTIRSIYHVRNIEVYKLKQLKQPIDIFLSHDWPRSIYHYGNKKQLLKTKSFFRQEVENNTLGSPAASELLEHLKPTYWFSAHLHVKFAALMQHQAKDKGQTARATKFLALDKCLPHRDFLQILEIEHDPSAPDYLEYDIEWLTILRATDDLINVTGRLWNMPENNGLHARWDYSATEEGMKEVLEKLNHDLKVPCNFSVTAACYDPSKPQTQMQLIHRINPQTTEFCAQLGIIDINVRLQKSKEEHHVCGEYEEQDDVESNDSGEDQSEYNTDTSALSSINPDEIMLDEEEDEDSIVSAHSGMNTPSVEPSDQASEFSASFSDVRILPGSMIVSSDDTVDSTIDREGKPGGTVESGNGEDLTKVPLKRLSDEHEPEQRKKIKRRNQAIYAAVDDDDDDAA"
